{"source": "ChEMBL document CHEMBL4296182", "about": "“CO-ADD screening of NIH NCI Diversity Set V”", "note": "This is one part of the list. Entries with a potency or affinity are not part of this list.", "data": [{"tested_on": "Pseudomonas aeruginosa", "conditions": "Concentration 20 uM; ASSAY_TEST Inhibition of Bacterial Growth; detection method Absorption (OD600); MEDIA CAMHB; plate type 384well; NBS; CORNING #3640; time 18 hr", "units": {"Inhibition": "%"}, "values": [{"smiles": "Cn1cc(C=O)c2nccnc21", "Inhibition": -20.09}, {"smiles": "CC(=O)Nc1ccc([As](=O)(O)c2ccc([N+](=O)[O-])cc2)cc1", "Inhibition": 8.63}, {"smiles": "CCOC(=O)c1ccc2nc(-c3ccc(S(=O)(=O)F)cc3)cc(O)c2c1", "Inhibition": 14.09}, {"smiles": "CSc1nc(=O)c(/N=N/c2ccc([As](=O)(O)O)cc2)c(N)[nH]1", "Inhibition": 24.01}, {"smiles": "N=C(N)N/N=C/c1c(Cl)cccc1Cl", "note": "[GUANABENZ]", "Inhibition": 14.02}, {"smiles": "CN1C(=O)NC(=O)C(/N=N/c2ccc(Cl)cc2)C1=O", "note": "(stereo unspecified)", "Inhibition": 5.3}, {"smiles": "COc1cc(C=C2C(=O)NC(=O)NC2=O)ccc1O", "Inhibition": 13}, {"smiles": "Cc1c(C(=O)c2ccccc2)c2ccccc2n1C", "Inhibition": 15.69}, {"smiles": "COc1cc2c(cc1O)CC1c3c(cc(O)c(OC)c3-2)CCN1C", "note": "(stereo unspecified)", "Inhibition": 17.23}, {"smiles": "O=C(O)CN1C(=O)CN=C(c2ccccn2)c2cc(Cl)ccc21", "Inhibition": 13.04}, {"smiles": "CN(C)C1CCc2[nH]c3c(F)cc(F)cc3c2C1", "note": "(stereo unspecified) [FLUCINDOLE]", "Inhibition": 4.86}, {"smiles": "CCC1CN1P(=O)(Oc1ccc(Cl)cc1)N1CC1CC", "note": "(stereo unspecified)", "Inhibition": 13.44}, {"smiles": "C/C=C/CC1(CC)C(=O)NC(=S)NC1=O", "Inhibition": -5.93}, {"smiles": "CN1CCC2(O)OCCCC2C1", "note": "(stereo unspecified)", "Inhibition": 7.92}, {"smiles": "O=C(OC1CCCCC1)c1ccccc1C(=O)OC1CCCCC1", "Inhibition": -2.41}, {"smiles": "C/C=C(/C)C(=O)O[C@H]1CCN2CC=C(COC(=O)[C@@](O)([C@H](C)OC)C(C)(C)O)[C@H]12", "Inhibition": 15.71}, {"smiles": "CC(CC(C#N)(c1ccccc1)c1ccccc1)N1CCCCC1", "note": "(stereo unspecified)", "Inhibition": -14.2}, {"smiles": "COc1ccc2c(c1O)[C@]13CCN(C)[C@H](C2)[C@@H]1CCC(=O)C3", "Inhibition": 18.77}, {"smiles": "CC[C@@]1(O)C(=O)OCc2c1cc1n(c2=O)Cc2cc3c(N)cccc3nc2-1", "note": "[9-AMINOCAMPTOTHECIN]", "Inhibition": 22.5}, {"smiles": "COc1cc(OC)cc(C2(C#N)CCN(C)CC2)c1", "Inhibition": -19.73}, {"smiles": "CC1(C)NC(=S)C(C)(C)N1N=O", "Inhibition": 6.84}, {"smiles": "O=C1NC(=O)C(=Cc2ccc3ccccc3c2)C(=O)N1", "Inhibition": -1.2}, {"smiles": "CNC(=O)Oc1c(O)ccnc1C", "Inhibition": 0.75}, {"smiles": "O=C1CCCN1CC#CCN1CCCC1", "note": "[OXOTREMORINE]", "Inhibition": 4.27}, {"smiles": "CC(C)(C)n1cc(C(=O)c2ccccc2)cc1-c1ccccc1", "Inhibition": 25.58}, {"smiles": "CC(C)NC1C2CCC(CC2)C1(O)c1ccc(Cl)c(Cl)c1.CS(=O)(=O)O", "note": "(stereo unspecified)", "Inhibition": 15.8}, {"smiles": "Cc1ccc2c(c1)Oc1ccccc1N=C2", "Inhibition": -1.96}, {"smiles": "CN1CCN(c2nc(N)c(Br)c(Cl)n2)CC1", "Inhibition": 23.68}, {"smiles": "COc1ccccc1NC(=O)Oc1cccc(OC(=O)c2ccccc2)c1", "Inhibition": 19.34}, {"smiles": "CC(C)CC(NC=O)C(=O)O.COc1cc2c(cc1OC)C13CCN4CC5=CCOC6CC(=O)N2C1C6C5CC43", "note": "(stereo unspecified)", "Inhibition": -11.88}, {"smiles": "COc1cccc2c1C(=O)c1c(O)c3c(c(O)c1C2=O)C[C@@](O)(/C(C)=N\\O)C[C@@H]3OC1CC(N)C(O)C(C)O1.Cl", "note": "(stereo partly specified)", "Inhibition": -15.53}, {"smiles": "COc1ccc2c(c1)C13CCN(C)C(C2)C1CCC1(C3)OCCO1", "note": "(stereo unspecified)", "Inhibition": 30.32}, {"smiles": "N#CC(C#N)=Cc1ccc(C=C(C#N)C#N)cc1", "Inhibition": 3.43}, {"smiles": "O=C(NCCCN1CC1)Nc1cccc2ccccc12", "Inhibition": 5.98}, {"smiles": "c1cc(C2N3CCCN2CC3)ccn1", "note": "(stereo unspecified)", "Inhibition": 22.9}, {"smiles": "C=CCNC(=S)Nc1ccc(OC(=O)Nc2ccc(Cl)c(Cl)c2)cc1", "Inhibition": 25.55}, {"smiles": "CC(=O)O.CCC(N)Cc1c[nH]c2ccccc12", "note": "(stereo unspecified) [ETRYPTAMINE ACETATE]", "Inhibition": 10.79}, {"smiles": "ClC1=C(Cl)C(Cl)=C(Cl)C1=C/C=C/c1ccccc1", "Inhibition": -10.5}, {"smiles": "O=[As](O)(O)c1ccc(/N=N/c2ccc(O)cc2)cc1", "Inhibition": 8.77}, {"smiles": "CN1CCC(c2c[nH]c3ccccc23)C1", "note": "(stereo unspecified)", "Inhibition": -7.25}, {"smiles": "COc1ccccc1[As](=O)(O)CC(O)COc1ccc(Cl)cc1Cl", "note": "(stereo unspecified)", "Inhibition": 26.74}, {"smiles": "CC1=CC(O)C(O)C2(C)C1CC1OC(=O)C(O)C3C(C)C(O)C4(O)OCC13C42", "note": "(stereo unspecified)", "Inhibition": 15.44}, {"smiles": "O=C(Nc1ccc(F)cc1)Oc1cccnc1O", "Inhibition": -3.06}, {"smiles": "CC12CCC3C(CC=C4CC(O)CCC43C)C1C/C(=C\\N1CCCC1)C2=O", "note": "(stereo unspecified)", "Inhibition": 21.38}, {"smiles": "C[C@H]1[C@H](C)N1CC(O)Cn1ccnc1[N+](=O)[O-]", "note": "(stereo partly specified)", "Inhibition": 3}, {"smiles": "O=[N+]([O-])c1cc(-c2ccc([As](=O)(O)O)cc2)ccc1[As](=O)(O)O", "Inhibition": 15.52}, {"smiles": "CC(Cc1ccccc1)NC(N)=O", "note": "(stereo unspecified)", "Inhibition": 22.04}, {"smiles": "CCC1CN1P1(=O)OCC(C)([N+](=O)[O-])CO1", "note": "(stereo unspecified)", "Inhibition": 6.15}, {"smiles": "Cc1ncc([N+](=O)[O-])n1CCOC(N)=O", "note": "[BAMNIDAZOLE]", "Inhibition": 10.25}, {"smiles": "CCOP(=O)(OCC)/C(C#N)=C/c1ccc(-c2ccc(F)cc2F)o1", "Inhibition": 12.92}, {"smiles": "O=C1N[C@H]2[C@H](O)[C@H](O)[C@@H](O)[C@H](O)[C@@H]2c2cc3c(c(O)c21)OCO3", "note": "[PANCRATISTATIN]", "Inhibition": 8.83}]}]}
